In patent US20080033032A1, “Novel Polymorphs Of The Potassium Salt Of Atorvastatin” (Sandoz A/S, priority 2004, published 2008):

Details: H 4.0 (pH 4.0); visual inspection

CC(C)c1c(C(=O)Nc2ccccc2)c(-c2ccccc2)c(-c2ccc(F)cc2)n1CC[C@@H](O)C[C@@H](O)CC(=O)[O-].[K+] [Form I]
Appearance of the solution in the solubility test: opalescent
